Laboratory results: PubChem BioAssay AID1259425 (University of Nebraska Medical Center, 2018)
This is an unselected part of about 14,000 reagents tested. Reagents against one gene are numbered here. Further read-outs or replicates are left out here. Reagent sequences are not shown. The record does not give: the time to read-out.

Aim: 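Find knockdowns that reproduce the gene expression pattern seen when KSR1 is lost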 (primary screen)
Cells: HCT116 human colon cancer cells
Reagents: siRNA pool against human genes, 50 nM siRNA
Measurement: 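After 50 nM siRNA pool, branched-DNA assay measures six marker transcripts per well, minus blank, normalised to the geometric mean of two housekeeping transcripts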
Scale: BNIP3L mRNA: higher = more BNIP3L transcript after knockdown; NDRG1 mRNA: higher = more NDRG1 transcript after knockdown

target gene,pool no.,"BNIP3L mRNA, set 1","NDRG1 mRNA, set 1"
MCM3AP,1,0.106,0.14
SLITRK2,1,0.158,0.144
STK26,1,0.0988,0.218
EI24,1,0.0735,0.117
CRNN,1,0.16,0.17
ZC3H4,1,0.183,0.594
MTG2,1,0.0972,0.158
SWAP70,1,0.0572,0.256
SNTB2,1,0.125,0.272
AKTIP,1,0.0524,0.0959
DDX50,1,0.156,0.157
DDX10,1,0.173,0.136
CLSTN2,1,0.0692,0.175
MOB4,1,0.149,0.314
POLD2,1,0.0773,0.527
TTI1,1,0.2,0.161
PRKCE,1,0.255,0.0927
ZNF195,1,0.123,0.0916
ARMC8,1,0.0738,0.247
LYRM4,1,0.0725,0.21
CACNB2,1,0.0839,0.0817

A stretch from the list above, as a working copy:
target gene,pool no.,"BNIP3L mRNA, set 1","NDRG1 mRNA, set 1"
SNTB2,1,0.125,0.272
AKTIP,1,0.0524,0.0959
DDX50,1,0.156,0.157
DDX10,1,0.173,0.136
CLSTN2,1,0.0692,0.175
MOB4,1,0.149,0.314

Continued:
target gene,pool no.,"BNIP3L mRNA, set 1","NDRG1 mRNA, set 1"
M6PR,1,0.0838,0.0979
ZNF26,1,0.0882,0.21
APTX,1,0.145,0.114
FOXG1,1,0.138,0.365
FOXG1,2,0.0312,0.151
PTCD1,1,0.114,0.167
PSD4,1,0.0778,0.184
ZNF141,1,0.145,0.277
SUOX,1,0.131,0.362
ABCD2,1,0.145,0.132
LILRA2,1,0.11,0.219
AEN,1,0.127,0.254
PELI1,1,0.142,0.271
MYO15A,1,0.0522,0.187
PTH1R,1,0.0913,0.0603
C4orf17,1,0.223,0.139
EYA1,1,0.0628,0.183
ARHGEF26,1,0.051,0.131
KLK2,1,0.083,0.166
ZFPM2,1,0.162,0.0937
FBXO30,1,0.552,0.563
OGT,1,0.0791,0.19
PAK1,1,0.221,0.291
GINS1,1,0.138,0.404
GPS2,1,0.0914,0.0639
HDAC6,1,0.111,0.196
MYL1,1,0.0928,0.461
UGT2A1,1,0.129,0.336
CDX2,1,0.073,0.0917
